Test [1] deals with T1, SMC1 (cohesin subunit) (Drosophila (endogenous in ovaries)) (UniProt Q9VCD8).
T1 sequence: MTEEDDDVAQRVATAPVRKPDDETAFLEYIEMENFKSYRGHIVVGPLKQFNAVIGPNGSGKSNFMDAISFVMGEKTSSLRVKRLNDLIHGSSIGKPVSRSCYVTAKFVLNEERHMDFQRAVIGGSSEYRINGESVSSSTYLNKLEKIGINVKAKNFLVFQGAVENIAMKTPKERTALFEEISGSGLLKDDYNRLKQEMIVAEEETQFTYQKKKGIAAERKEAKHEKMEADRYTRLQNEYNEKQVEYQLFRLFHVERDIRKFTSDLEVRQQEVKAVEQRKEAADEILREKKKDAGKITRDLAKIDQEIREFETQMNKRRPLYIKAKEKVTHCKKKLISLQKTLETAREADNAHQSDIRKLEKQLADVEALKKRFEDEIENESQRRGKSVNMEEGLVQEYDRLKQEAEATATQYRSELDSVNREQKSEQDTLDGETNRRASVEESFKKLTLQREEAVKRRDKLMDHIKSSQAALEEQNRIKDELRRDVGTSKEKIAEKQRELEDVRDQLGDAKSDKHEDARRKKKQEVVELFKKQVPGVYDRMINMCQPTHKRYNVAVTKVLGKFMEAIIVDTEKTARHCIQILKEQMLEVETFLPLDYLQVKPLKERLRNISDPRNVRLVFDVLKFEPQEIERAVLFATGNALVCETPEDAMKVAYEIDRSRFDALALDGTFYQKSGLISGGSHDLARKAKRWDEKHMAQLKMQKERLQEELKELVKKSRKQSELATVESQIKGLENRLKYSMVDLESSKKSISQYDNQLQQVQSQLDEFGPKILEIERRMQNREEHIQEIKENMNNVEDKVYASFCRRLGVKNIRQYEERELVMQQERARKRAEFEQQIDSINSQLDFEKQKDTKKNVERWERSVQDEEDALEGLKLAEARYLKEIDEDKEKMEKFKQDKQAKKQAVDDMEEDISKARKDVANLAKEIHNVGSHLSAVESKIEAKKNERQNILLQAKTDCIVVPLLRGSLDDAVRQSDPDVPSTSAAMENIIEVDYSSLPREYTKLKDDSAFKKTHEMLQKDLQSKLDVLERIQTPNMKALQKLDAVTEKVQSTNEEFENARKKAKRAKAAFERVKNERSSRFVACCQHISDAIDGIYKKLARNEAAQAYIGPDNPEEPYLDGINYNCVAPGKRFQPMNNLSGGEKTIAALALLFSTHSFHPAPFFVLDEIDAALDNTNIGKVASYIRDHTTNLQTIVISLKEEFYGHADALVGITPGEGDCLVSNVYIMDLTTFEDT
The test can be described thus: co-IP; anti-SMC1 rabbit antibody and protein A agarose beads on pre-cleared FH::SOLO ovary lysate (NP40 Cell Lysis Buffer), 4°C; blot with anti-FLAG; controls: rabbit serum, y w ovaries.

The target of test [2] is T2, FH::SOLO (full-length SOLO with tandem 3XFLAG and 3XHA tags at its N-terminus) (Drosophila) (UniProt B6JUP5).
T2 sequence: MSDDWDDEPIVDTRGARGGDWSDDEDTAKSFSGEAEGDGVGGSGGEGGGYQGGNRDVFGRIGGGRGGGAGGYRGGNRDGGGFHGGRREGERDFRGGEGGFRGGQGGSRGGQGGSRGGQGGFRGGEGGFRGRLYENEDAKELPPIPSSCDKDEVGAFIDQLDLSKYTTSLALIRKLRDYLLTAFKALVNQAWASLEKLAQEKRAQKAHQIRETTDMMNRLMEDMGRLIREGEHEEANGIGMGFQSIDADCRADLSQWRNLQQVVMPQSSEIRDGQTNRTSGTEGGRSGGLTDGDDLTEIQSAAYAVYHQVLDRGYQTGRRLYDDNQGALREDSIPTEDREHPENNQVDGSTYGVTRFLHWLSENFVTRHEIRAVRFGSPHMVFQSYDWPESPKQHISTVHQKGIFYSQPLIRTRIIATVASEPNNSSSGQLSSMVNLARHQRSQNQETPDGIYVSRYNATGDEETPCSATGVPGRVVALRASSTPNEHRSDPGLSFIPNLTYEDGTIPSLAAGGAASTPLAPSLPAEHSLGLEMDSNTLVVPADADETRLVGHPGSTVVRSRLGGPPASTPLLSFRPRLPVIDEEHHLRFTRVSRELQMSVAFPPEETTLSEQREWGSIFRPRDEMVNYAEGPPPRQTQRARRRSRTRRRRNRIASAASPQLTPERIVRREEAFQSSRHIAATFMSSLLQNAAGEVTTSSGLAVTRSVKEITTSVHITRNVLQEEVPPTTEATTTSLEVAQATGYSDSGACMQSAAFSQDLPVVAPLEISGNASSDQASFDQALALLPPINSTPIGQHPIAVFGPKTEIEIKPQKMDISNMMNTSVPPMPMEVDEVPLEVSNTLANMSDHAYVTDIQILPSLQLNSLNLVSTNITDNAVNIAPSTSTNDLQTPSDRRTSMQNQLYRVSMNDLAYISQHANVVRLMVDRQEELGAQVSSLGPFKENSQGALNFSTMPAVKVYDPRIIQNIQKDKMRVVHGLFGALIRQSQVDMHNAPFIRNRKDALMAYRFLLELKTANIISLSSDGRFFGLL
Description: co-IP; anti-FLAG M2 antibody and protein G agarose beads on pre-cleared FH::SOLO ovary lysate (NP40 Cell Lysis Buffer), 4°C; blot with anti-SMC1; control: mouse serum.

These are yes or no findings as the source states them, for the method shown. Binding seen in cells or lysates may run through a third protein. Some entries that bind do so weakly or less than the wild type. Sequences can lack the tags named with a protein.

B1: FH::SOLO (full-length SOLO with tandem 3XFLAG and 3XHA tags at its N-terminus) (protein, UniProt B6JUP5 1-1031)
chain: MSDDWDDEPIVDTRGARGGDWSDDEDTAKSFSGEAEGDGVGGSGGEGGGYQGGNRDVFGRIGGGRGGGAGGYRGGNRDGGGFHGGRREGERDFRGGEGGFRGGQGGSRGGQGGSRGGQGGFRGGEGGFRGRLYENEDAKELPPIPSSCDKDEVGAFIDQLDLSKYTTSLALIRKLRDYLLTAFKALVNQAWASLEKLAQEKRAQKAHQIRETTDMMNRLMEDMGRLIREGEHEEANGIGMGFQSIDADCRADLSQWRNLQQVVMPQSSEIRDGQTNRTSGTEGGRSGGLTDGDDLTEIQSAAYAVYHQVLDRGYQTGRRLYDDNQGALREDSIPTEDREHPENNQVDGSTYGVTRFLHWLSENFVTRHEIRAVRFGSPHMVFQSYDWPESPKQHISTVHQKGIFYSQPLIRTRIIATVASEPNNSSSGQLSSMVNLARHQRSQNQETPDGIYVSRYNATGDEETPCSATGVPGRVVALRASSTPNEHRSDPGLSFIPNLTYEDGTIPSLAAGGAASTPLAPSLPAEHSLGLEMDSNTLVVPADADETRLVGHPGSTVVRSRLGGPPASTPLLSFRPRLPVIDEEHHLRFTRVSRELQMSVAFPPEETTLSEQREWGSIFRPRDEMVNYAEGPPPRQTQRARRRSRTRRRRNRIASAASPQLTPERIVRREEAFQSSRHIAATFMSSLLQNAAGEVTTSSGLAVTRSVKEITTSVHITRNVLQEEVPPTTEATTTSLEVAQATGYSDSGACMQSAAFSQDLPVVAPLEISGNASSDQASFDQALALLPPINSTPIGQHPIAVFGPKTEIEIKPQKMDISNMMNTSVPPMPMEVDEVPLEVSNTLANMSDHAYVTDIQILPSLQLNSLNLVSTNITDNAVNIAPSTSTNDLQTPSDRRTSMQNQLYRVSMNDLAYISQHANVVRLMVDRQEELGAQVSSLGPFKENSQGALNFSTMPAVKVYDPRIIQNIQKDKMRVVHGLFGALIRQSQVDMHNAPFIRNRKDALMAYRFLLELKTANIISLSSDGRFFGLL
As for B1, the binding entry in test [1] is given as “binds”.

B2: SMC1 (cohesin subunit) (protein, UniProt Q9VCD8 1-1238)
chain: MTEEDDDVAQRVATAPVRKPDDETAFLEYIEMENFKSYRGHIVVGPLKQFNAVIGPNGSGKSNFMDAISFVMGEKTSSLRVKRLNDLIHGSSIGKPVSRSCYVTAKFVLNEERHMDFQRAVIGGSSEYRINGESVSSSTYLNKLEKIGINVKAKNFLVFQGAVENIAMKTPKERTALFEEISGSGLLKDDYNRLKQEMIVAEEETQFTYQKKKGIAAERKEAKHEKMEADRYTRLQNEYNEKQVEYQLFRLFHVERDIRKFTSDLEVRQQEVKAVEQRKEAADEILREKKKDAGKITRDLAKIDQEIREFETQMNKRRPLYIKAKEKVTHCKKKLISLQKTLETAREADNAHQSDIRKLEKQLADVEALKKRFEDEIENESQRRGKSVNMEEGLVQEYDRLKQEAEATATQYRSELDSVNREQKSEQDTLDGETNRRASVEESFKKLTLQREEAVKRRDKLMDHIKSSQAALEEQNRIKDELRRDVGTSKEKIAEKQRELEDVRDQLGDAKSDKHEDARRKKKQEVVELFKKQVPGVYDRMINMCQPTHKRYNVAVTKVLGKFMEAIIVDTEKTARHCIQILKEQMLEVETFLPLDYLQVKPLKERLRNISDPRNVRLVFDVLKFEPQEIERAVLFATGNALVCETPEDAMKVAYEIDRSRFDALALDGTFYQKSGLISGGSHDLARKAKRWDEKHMAQLKMQKERLQEELKELVKKSRKQSELATVESQIKGLENRLKYSMVDLESSKKSISQYDNQLQQVQSQLDEFGPKILEIERRMQNREEHIQEIKENMNNVEDKVYASFCRRLGVKNIRQYEERELVMQQERARKRAEFEQQIDSINSQLDFEKQKDTKKNVERWERSVQDEEDALEGLKLAEARYLKEIDEDKEKMEKFKQDKQAKKQAVDDMEEDISKARKDVANLAKEIHNVGSHLSAVESKIEAKKNERQNILLQAKTDCIVVPLLRGSLDDAVRQSDPDVPSTSAAMENIIEVDYSSLPREYTKLKDDSAFKKTHEMLQKDLQSKLDVLERIQTPNMKALQKLDAVTEKVQSTNEEFENARKKAKRAKAAFERVKNERSSRFVACCQHISDAIDGIYKKLARNEAAQAYIGPDNPEEPYLDGINYNCVAPGKRFQPMNNLSGGEKTIAALALLFSTHSFHPAPFFVLDEIDAALDNTNIGKVASYIRDHTTNLQTIVISLKEEFYGHADALVGITPGEGDCLVSNVYIMDLTTFEDT
In the case of B2, the binding result in test [2] is on record as “binds”.

The record behind these values is paper PMC3715423.
